No constants are given. Whether binding was seen depends on the method and setting. Binding calls can cover weak binding; strength is not graded here.
Assays:
[1] = target: ICAM-1 expressed on the surface of HBMEC (human (endogenous in HBMEC)) (UniProt P05362); test: adhesion of infected erythrocytes under flow; microslides seeded with HBMEC, resting or treated with TNFα; pre-incubated with anti-ICAM-1 (40 μg/mL), anti-EPCR (10 μg/mL) or both to tell the receptor
[2] = target: T1, EPCR expressed on the surface of HBMEC (human (endogenous in HBMEC)) (UniProt Q9UNN8); test: as above
T1 sequence: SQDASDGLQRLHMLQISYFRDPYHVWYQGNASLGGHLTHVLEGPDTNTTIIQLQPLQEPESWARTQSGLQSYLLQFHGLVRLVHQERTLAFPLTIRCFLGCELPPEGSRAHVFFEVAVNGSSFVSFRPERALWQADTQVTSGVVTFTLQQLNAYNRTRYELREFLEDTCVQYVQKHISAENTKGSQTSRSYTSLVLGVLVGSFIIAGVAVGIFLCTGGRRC

Amino acid sequences for entries named in this document (tags omitted). A change or cut given only in a name is not applied to a line headed by its entry. Residues count along the entry.
UniProt P05362, residues 28-532: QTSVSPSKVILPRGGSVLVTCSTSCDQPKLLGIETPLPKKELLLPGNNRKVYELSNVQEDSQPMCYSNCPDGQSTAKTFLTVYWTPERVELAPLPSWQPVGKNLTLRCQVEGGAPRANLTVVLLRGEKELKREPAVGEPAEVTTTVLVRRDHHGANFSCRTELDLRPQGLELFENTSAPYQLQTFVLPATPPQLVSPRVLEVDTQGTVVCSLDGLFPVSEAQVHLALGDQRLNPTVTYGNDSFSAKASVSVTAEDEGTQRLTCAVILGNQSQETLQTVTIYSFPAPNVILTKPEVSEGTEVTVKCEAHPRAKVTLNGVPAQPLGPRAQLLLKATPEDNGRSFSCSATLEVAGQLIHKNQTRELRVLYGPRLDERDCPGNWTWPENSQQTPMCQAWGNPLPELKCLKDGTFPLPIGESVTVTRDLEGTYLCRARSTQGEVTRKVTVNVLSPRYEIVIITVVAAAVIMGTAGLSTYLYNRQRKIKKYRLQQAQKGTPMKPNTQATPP
UniProt Q8I098: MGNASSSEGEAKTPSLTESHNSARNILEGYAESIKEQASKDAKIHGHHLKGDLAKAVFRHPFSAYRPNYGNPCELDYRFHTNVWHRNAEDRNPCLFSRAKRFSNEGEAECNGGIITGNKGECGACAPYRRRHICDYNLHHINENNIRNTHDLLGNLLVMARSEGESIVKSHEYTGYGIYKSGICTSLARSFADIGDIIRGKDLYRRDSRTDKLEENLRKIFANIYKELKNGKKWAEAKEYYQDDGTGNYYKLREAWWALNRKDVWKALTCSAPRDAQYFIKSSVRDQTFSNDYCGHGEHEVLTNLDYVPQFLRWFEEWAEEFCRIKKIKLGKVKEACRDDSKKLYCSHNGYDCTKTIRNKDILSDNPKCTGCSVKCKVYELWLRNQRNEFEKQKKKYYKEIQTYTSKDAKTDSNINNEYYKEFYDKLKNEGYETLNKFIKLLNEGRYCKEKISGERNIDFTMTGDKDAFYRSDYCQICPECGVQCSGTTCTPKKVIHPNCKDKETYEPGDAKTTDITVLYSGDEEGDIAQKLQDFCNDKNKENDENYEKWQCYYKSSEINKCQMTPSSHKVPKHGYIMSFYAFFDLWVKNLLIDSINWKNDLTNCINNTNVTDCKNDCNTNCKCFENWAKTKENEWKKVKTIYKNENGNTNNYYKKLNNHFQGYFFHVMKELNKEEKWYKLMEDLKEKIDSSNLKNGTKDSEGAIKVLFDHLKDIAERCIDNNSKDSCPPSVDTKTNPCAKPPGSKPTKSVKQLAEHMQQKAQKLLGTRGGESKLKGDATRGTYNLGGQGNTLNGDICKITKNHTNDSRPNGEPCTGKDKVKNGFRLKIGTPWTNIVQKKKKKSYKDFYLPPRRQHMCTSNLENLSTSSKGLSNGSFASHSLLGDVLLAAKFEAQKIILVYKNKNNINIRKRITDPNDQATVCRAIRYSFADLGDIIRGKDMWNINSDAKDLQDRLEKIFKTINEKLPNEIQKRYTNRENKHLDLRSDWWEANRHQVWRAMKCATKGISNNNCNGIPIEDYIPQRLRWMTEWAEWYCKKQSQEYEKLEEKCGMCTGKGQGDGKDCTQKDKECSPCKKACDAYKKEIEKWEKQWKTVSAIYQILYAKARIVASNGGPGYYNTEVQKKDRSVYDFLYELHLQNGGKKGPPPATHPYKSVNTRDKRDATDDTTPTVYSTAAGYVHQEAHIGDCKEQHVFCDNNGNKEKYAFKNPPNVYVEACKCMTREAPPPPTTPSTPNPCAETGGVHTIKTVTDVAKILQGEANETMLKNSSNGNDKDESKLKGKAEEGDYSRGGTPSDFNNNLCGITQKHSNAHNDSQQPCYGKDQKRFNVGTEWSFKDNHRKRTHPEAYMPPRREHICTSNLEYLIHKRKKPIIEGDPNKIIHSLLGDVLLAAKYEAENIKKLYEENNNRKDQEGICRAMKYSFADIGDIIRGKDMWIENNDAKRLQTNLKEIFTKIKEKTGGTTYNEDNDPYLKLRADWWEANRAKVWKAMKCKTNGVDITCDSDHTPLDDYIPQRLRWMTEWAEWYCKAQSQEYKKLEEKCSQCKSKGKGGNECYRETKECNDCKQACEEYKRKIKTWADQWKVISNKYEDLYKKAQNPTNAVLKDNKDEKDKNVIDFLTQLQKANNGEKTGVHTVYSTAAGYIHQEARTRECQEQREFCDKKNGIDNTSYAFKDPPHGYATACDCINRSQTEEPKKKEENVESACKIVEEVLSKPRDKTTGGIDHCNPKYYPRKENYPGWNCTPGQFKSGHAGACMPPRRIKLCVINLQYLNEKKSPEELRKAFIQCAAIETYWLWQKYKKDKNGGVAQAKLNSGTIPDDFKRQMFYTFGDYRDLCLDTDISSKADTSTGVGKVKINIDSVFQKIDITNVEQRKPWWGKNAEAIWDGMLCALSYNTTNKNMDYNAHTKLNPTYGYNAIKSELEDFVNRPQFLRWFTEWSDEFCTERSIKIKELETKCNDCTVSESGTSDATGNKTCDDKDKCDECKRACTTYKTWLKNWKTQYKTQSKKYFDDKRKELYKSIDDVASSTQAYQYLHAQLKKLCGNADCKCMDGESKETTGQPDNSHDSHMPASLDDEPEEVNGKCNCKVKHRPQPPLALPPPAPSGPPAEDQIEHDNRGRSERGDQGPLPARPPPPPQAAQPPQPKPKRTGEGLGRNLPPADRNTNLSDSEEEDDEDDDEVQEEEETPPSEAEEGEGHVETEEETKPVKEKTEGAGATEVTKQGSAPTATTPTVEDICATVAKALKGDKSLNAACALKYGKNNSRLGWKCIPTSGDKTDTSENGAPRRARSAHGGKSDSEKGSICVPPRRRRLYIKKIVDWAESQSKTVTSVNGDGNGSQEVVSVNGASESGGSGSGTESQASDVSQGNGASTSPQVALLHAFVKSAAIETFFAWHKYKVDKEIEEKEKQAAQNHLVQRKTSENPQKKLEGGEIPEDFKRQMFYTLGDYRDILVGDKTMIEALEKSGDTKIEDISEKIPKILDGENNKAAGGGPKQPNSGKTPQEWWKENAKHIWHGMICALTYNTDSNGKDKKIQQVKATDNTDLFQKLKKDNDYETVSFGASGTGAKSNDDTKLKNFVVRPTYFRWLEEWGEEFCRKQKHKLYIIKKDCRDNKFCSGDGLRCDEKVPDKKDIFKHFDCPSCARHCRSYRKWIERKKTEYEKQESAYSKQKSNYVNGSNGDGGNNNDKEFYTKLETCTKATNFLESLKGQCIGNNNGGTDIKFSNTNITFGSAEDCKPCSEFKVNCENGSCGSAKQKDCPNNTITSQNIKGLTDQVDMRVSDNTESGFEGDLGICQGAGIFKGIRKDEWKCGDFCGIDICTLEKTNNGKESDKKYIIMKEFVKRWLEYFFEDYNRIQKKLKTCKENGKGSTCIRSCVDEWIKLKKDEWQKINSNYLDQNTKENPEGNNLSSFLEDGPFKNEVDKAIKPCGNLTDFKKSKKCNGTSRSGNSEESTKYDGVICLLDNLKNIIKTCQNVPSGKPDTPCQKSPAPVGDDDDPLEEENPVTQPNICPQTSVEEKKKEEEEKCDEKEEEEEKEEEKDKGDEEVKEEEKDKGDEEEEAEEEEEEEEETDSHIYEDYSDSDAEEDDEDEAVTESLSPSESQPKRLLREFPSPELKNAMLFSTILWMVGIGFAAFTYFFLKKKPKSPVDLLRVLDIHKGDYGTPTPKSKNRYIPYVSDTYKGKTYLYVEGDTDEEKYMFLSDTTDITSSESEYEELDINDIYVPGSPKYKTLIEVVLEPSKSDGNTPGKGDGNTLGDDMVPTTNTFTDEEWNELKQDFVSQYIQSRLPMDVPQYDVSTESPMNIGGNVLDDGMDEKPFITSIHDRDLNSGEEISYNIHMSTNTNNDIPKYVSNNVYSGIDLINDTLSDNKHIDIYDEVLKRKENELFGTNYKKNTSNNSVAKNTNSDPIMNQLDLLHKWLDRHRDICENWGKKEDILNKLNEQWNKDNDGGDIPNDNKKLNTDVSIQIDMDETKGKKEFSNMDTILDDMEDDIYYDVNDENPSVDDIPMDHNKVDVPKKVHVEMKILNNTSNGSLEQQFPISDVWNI

Row | Substance | binding [1] | binding [2]
1 | 3D7 PFD1235w PfEMP1 on infected erythrocytes (from UniProt Q8I098) | binds | binds
2 | IT4VAR13 PfEMP1 on infected erythrocytes (from UniProt A3R6S0) | binds | no binding

From paper PMC5374107
